In publication PMC10328067:
These are yes or no findings as the source states them, for the method shown. Binding seen in cells or lysates may run through a third protein. Some results given as binding are weak or reduced against the parent protein; the word gives no strength.

Molecular target: Serine-arginine rich splicing factor 3 (SRSF3) (human) (UniProt P84103)
Assay: co-IP; LIM1215 cells expressing SRSF3-GFP or GFP only; immunoprecipitation with an anti-GFP antibody, Western blot detection with an anti-SRSF3 antibody

B1: Serine-arginine rich splicing factor 3 (SRSF3) (protein, UniProt P84103 1-164)
chain: MHRDSCPLDCKVYVGNLGNNGNKTELERAFGYYGPLRSVWVARNPPGFAFVEFEDPRDAADAVRELDGRTLCGCRVRVELSNGEKRSRNRGPPPSWGRRPRDDYRRRSPPPRRRSPRRRSFSRSRSRSLSRDRRRERSLSRERNHKPSRSFSRSRSRSRSNERK
binding: binds
